Experimental data: PubChem BioAssay AID2685 (National Center for Advancing Translational Sciences (NCATS), 2010)
The list shows a part of the results. Shown are side measurements of this screen, not its main read-out; they come without a call. Compounds called inactive in the main read-out are mostly missing here. Potencies come from curve fits of mixed quality, noted in brackets.

Assay: qHTS Assay for Lipid Storage Modulators in Drosophila S3 Cells;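 as to cell number change: cells counted by Cell Tracker Red CMTPX staining in the red channel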
Conditions: BODIPY lipid droplet fluorescence, 18-24 h; for cell number change: measured here: cell count max response, cells fed with added oleic acid
Procedure, shortened: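 Laser-scanning cytometry quantifies lipid droplet accumulation (500–530 nm total intensity; droplet/cell object ratio) in oleic acid-fed (400 uM added) Drosophila S3 cells treated with a concentration series. 20 uM Triacsin C defined 100% inhibition.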

[1] = measured here: lipid fluorescence (Fed channel) AC50, cells fed with added oleic acid
[2] = measured here: cell number channel AC50, cells fed with added oleic acid

SMILES	cell number change [%]	AC50 [1]	AC50 [2]
CC(=O)c1cc(CN2CCN(CCc3ccccc3)C(CCO)C2)cs1 (configuration not stated)	16.8	1.3 µM [falling, full curve]	–
COc1ccc(C(=O)Nc2nc(CC(=O)NCCc3cccc(OC)c3)cs2)cc1	–	–	0.517 µM [rising, full curve, poor fit]
CCN(CC)S(=O)(=O)c1ccc(N2CCOCC2)c(NS(=O)(=O)c2ccc(C)cc2)c1	-75.3	1.84 µM [falling, full curve]	2.06 µM [falling, full curve]
Cc1ccc([N+](=O)[O-])c(OCCn2cnc3ccccc32)c1	63.1	29.1 µM [rising, single point]	–
CCOC(=O)N1CCC(NC(=O)c2ccc3c(=O)n4c(nc3c2)CCCC4)CC1	–	32.6 µM [falling, partial curve, poor fit]	–
CC1CCN(C(=S)NC2CC3CCC2C3)CC1 (configuration not stated)	8.18	–	–
CC(C)CN(CC(C)C)CC(O)CN(c1ccccc1)S(=O)(=O)c1ccccc1[N+](=O)[O-] (configuration not stated)	13.8	29.1 µM [rising, single point]	–
NC(=O)c1nsc(C(=O)N(Cc2ccccc2F)C(C(=O)NCC2CCCO2)c2ccc(F)cc2)c1N (configuration not stated)	25.7	29.1 µM [falling, single point]	–
COc1cc(/C=N/NC(=O)NC2CCCCC2)ccc1O	-31.7	6.51 µM [rising, single point]	1.64 µM [falling, partial curve]
Cc1ccccc1NS(=O)(=O)c1ccc2c3c(cccc13)C(=O)N2C	-63.9	29.1 µM [falling, single point]	29.1 µM [falling, single point]
O=C(Nc1ccc(-c2nc3ccccc3[nH]2)cc1)c1ccco1	–	–	6.51 µM [rising, partial curve]
CCCCOc1ccc(C(=O)NCC(=O)N2CC(C)OC(C)C2)cc1 (configuration not stated)	-22.6	1.16 µM [falling, full curve]	–
O=C(Cn1c(=O)oc2cccnc21)Nc1ccc(C(F)(F)F)cc1	-3.02	1.16 µM [falling, single point]	–
O=C(c1ccc(Cl)cc1)c1ccccc1C(=O)N1CCOCC1	-4.5	–	–
O=C(CN(C(=O)c1ccco1)c1cccc(F)c1)NCc1ccc(F)cc1	1.99	0.116 µM [falling, full curve, poor fit]	–
CCCC(=O)N=c1sc2cccc(F)c2n1C	–	2.91 µM [rising, partial curve]	6.51 µM [rising, single point]
COc1ccc(NC2CC(=O)N(c3ccccc3)C2=O)cc1 (configuration not stated)	-19.2	3.26 µM [falling, single point]	0.13 µM [falling, full curve, poor fit]
O=C(Nc1ccccc1N1CCOCC1)c1ccc(N2CCCC2=O)cc1	21.5	2.91 µM [rising, partial curve]	–
CCOC(=O)CSc1nnc(SCCN2C(=O)c3ccccc3C2=O)s1	-28.5	29.1 µM [falling, single point]	3.26 µM [falling, single point]
COc1ccccc1N1C(=O)CCC1(C#N)c1ccc(Br)cc1 (configuration not stated)	58.6	6.51 µM [rising, partial curve]	11.6 µM [rising, partial curve]
COc1cc(Cl)c(C)cc1NC(=O)COc1ccc(C)nc1[N+](=O)[O-]	1.28	18.4 µM [rising, partial curve]	1.84 µM [falling, partial curve]
Cc1nn(-c2nnc(NCc3ccccc3)nn2)c(C)c1Br	-77.4	14.6 µM [falling, partial curve]	29.1 µM [falling, single point]
Brc1ccc(-c2nnc(-c3ccccc3)c(N3CCSCC3)n2)cc1	132	9.2 µM [rising, single point]	–
CN(C)c1ccc(/C=C2\SC(=S)N(Nc3ncc(C(F)(F)F)cc3Cl)C2=O)cc1	2.67	–	–
O=C(CSC1=NCCN1)C1COc2ccccc2O1 (configuration not stated)	-9.83	0.0517 µM [falling, full curve]	–
Cc1[nH]n(-c2ccc(C(=O)O)cc2)c(=O)c1CCO	-10	–	–
C1=C(CCNc2ncnc3c2[nH]c2ccccc23)CCCC1	-40.4	0.411 µM [falling, full curve]	1.64 µM [falling, partial curve, poor fit]
N/C(=N/O)c1nc(N2CCCC2)nc(N(c2ccccc2)c2ccccc2)n1	-32.7	0.082 µM [falling, partial curve, poor fit]	0.231 µM [falling, full curve, poor fit]

In the list so far, two have a CF3 group.
SMILES	cell number change [%]	AC50 [1]	AC50 [2]
O=C(Cn1c(=O)oc2cccnc21)Nc1ccc(C(F)(F)F)cc1	-3.02	1.16 µM [falling, single point]	–
CN(C)c1ccc(/C=C2\SC(=S)N(Nc3ncc(C(F)(F)F)cc3Cl)C2=O)cc1	2.67	–	–

The results go on.

SMILES	cell number change [%]	AC50 [1]	AC50 [2]
Cc1[nH]n(-c2ccccc2)c(=O)c1N=Nc1ccc(C(=O)O)cc1	9.91	–	0.00517 µM [rising, full curve, poor fit]
CCOC(=O)N1CCN(c2c(NCCN(C)Cc3ccccc3)c(=O)c2=O)CC1	–	6.51 µM [falling, single point]	6.51 µM [falling, single point]
CN(C)S(=O)(=O)c1ccc(Cl)c(C(=O)OCC(=O)NNC(=O)c2cccs2)c1	12.8	0.92 µM [rising, full curve]	–
COc1ccc(S(=O)(=O)N2CCOC2CNC(=O)C(=O)NCc2cccnc2)cc1C (configuration not stated)	23.4	29.1 µM [rising, single point]	–
CCOC(=O)c1sc(NC(=S)NC(=O)C2CC2)cc1C	-36.6	6.51 µM [falling, full curve]	6.51 µM [falling, full curve, poor fit]
CC(C)(C)NC(=O)CSc1nnc(-c2c[nH]c3ccccc23)o1	17.5	–	1.3 µM [rising, full curve, poor fit]
CC1(C)Cc2c(sc3ncnc(NNC(=S)NCc4ccccc4)c23)CO1	-28.4	–	0.651 µM [rising, single point]
COc1ccc2cc(S(=O)(=O)c3ccccc3)c(=O)oc2c1	14.4	20.6 µM [rising, single point]	–
O=C(CN1C(=O)COc2ccccc21)N1CCN(c2ccccc2F)CC1	10.7	18.4 µM [rising, single point]	–
CCCNC(=O)c1c(N)n(-c2cc(OC)cc(OC)c2)c2nc3ccccc3nc12	-16.3	–	–
COC(=O)c1ccccc1NC(=O)CSc1nnc(-c2ccoc2C)n1C	-24.7	5.8 µM [falling, full curve, poor fit]	–
O=C(O)CCc1nnc(SCC(=O)Nc2ccc(Cl)c(C(F)(F)F)c2)[nH]c1=O	-24.6	9.2 µM [falling, partial curve]	–
O=c1[nH]c(C2CCN(S(=O)(=O)c3cccc(C(F)(F)F)c3)CC2)nc2c1nnn2Cc1cccc(F)c1	-2.78	29.1 µM [rising, single point]	–
CN1CCC(N(C)CC(C)(C)NS(=O)(=O)c2ccccc2)CC1	11.5	32.6 µM [rising, single point]	–
NC(=NCCc1c[nH]c2ccccc12)NS(=O)(=O)c1ccc2ccccc2c1	-35.9	4.11 µM [falling, full curve, poor fit]	1.16 µM [falling, full curve, poor fit]
Cc1cc(C)n(CC(O)Cn2ccc3ccccc32)n1 (configuration not stated)	-58	29.1 µM [falling, single point]	29.1 µM [falling, single point]
Cn1c(=O)c2[nH]c(Nc3ccccc3)nc2n(C)c1=O	-21.2	13 µM [falling, partial curve]	–
O=C(Nc1nnc(CC(c2ccccc2)c2ccccc2)s1)c1ccco1	-7.89	0.13 µM [falling, full curve, poor fit]	–
O/N=C(/c1ccc(Cl)cc1)C1CC1c1ccccc1 (configuration not stated)	-61.8	20.6 µM [falling, partial curve]	18.4 µM [falling, partial curve]
N#CCCn1c(SCC(=O)Nc2ccc(N3CCOCC3)cc2)nc2ccccc21	25.8	9.2 µM [rising, partial curve]	–
COc1cc(C2C(C(=O)Nc3ccc(F)cc3)=C(C)Nc3nc(CCCO)nn32)cc(OC)c1OC (configuration not stated)	17.8	29.1 µM [rising, single point]	–
COc1ccc(S(=O)(=O)N2CCC(C(=O)NC3CCCC3)CC2)cc1OC	5.2	7.31 µM [rising, single point]	–
CC(OC(=O)c1ccccc1OCc1ccc(Cl)cc1)C(N)=O (configuration not stated)	–	5.17 µM [rising, single point]	0.326 µM [rising, partial curve, poor fit]
CCOC(=O)Cn1c(-c2ccccc2)ccc(C#N)c1=O	-15.4	25.9 µM [falling, single point]	–
C=CCn1c(SCc2nc3scc(-c4ccccc4)c3c(=O)[nH]2)nnc1-c1ccccc1F	-1.27	16.4 µM [falling, single point]	–
Nc1nnc(CC(=O)N/N=C/c2cccc(OCCOc3ccccc3)c2)s1	-65	16.4 µM [falling, single point]	18.4 µM [falling, single point]
Cc1nc(-c2ccccc2)sc1C1(C)CC(c2ccc(OC(F)(F)F)cc2)=NO1 (configuration not stated)	16	11.6 µM [rising, single point]	–
